# Microarray screen: hit calls

From ROBIN, a set of small-molecule microarray screens (doi:10.1002/anie.202211358).

Oligonucleotides screened, 5′ to 3′:
T1: TPP riboswitch RNA three-way junction, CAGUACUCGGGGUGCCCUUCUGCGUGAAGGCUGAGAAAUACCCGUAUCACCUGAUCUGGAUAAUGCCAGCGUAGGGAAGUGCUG. Hit rate about 0.7% of about 24,000 compounds.
T2: SAM-II riboswitch RNA pseudoknot, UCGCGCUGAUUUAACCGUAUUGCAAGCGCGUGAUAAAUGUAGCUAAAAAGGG. Hit rate about 1% of about 21,000 compounds.
T3: PreQ1 riboswitch RNA pseudoknot, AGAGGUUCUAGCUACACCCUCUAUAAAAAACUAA. From B. subtilis. Hit rate about 0.7% of about 24,000 compounds.

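Compounds were printed on reactive glass slides in duplicate spots, a dye-labelled oligonucleotide was laid over them, and the fluorescence left after washing was read. The data file lists only calls. An earlier report of the laboratory on the PreQ1, TPP and SAM-II riboswitches (doi:10.1038/s41467-019-09493-3) used 1 µM RNA for 2 h and required a mean Z-score above 3 (spot signal-to-noise against the whole library), a score well above that on a control array, and duplicate spots agreeing (coefficient of variation under 100); it then also set aside compounds that hit other targets, which this list keeps. The cut-offs behind this list may differ. The calls come from the array alone, and fixing a compound to the slide can hide its binding.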
Key: hit = hit, none = tested without a hit.
Compounds were drawn at random from those tested, without regard to their results.
A dash means that no call is listed here.

structure | T1 | T2 | T3
Cc1cc(C)n(CC2(CNC(=O)C3CC4(CCNCC4)CN3C)CC2)n1 (stereo not shown) | none | none | none
CCc1nc2nc(C)cc(Nc3cccc(C)c3C)n2n1 | none | none | none
CN(C)CCCNc1oc(C=Cc2ccc(F)cc2)nc1C#N | none | - | none
c1cnc(N2CCC(NCCc3csc(-c4ccncc4)n3)CC2)nc1 | none | none | none
CCOC(=O)C(=O)N1CC2(C)CNCC(C)(C1)C2=O | none | none | none
O=C(NCC1(c2cccc(F)c2)CCOCC1)c1cn2c(n1)CNCC2 | none | none | none
Cc1ccc(Nc2c(-c3ccc(C(=O)O)cc3)nc3cnccn23)cc1Cl | none | - | none
CN(Cc1ccsc1)C(=O)c1cn([C@H]2CC[C@@H](N)CC2)nn1 | none | none | none
NC(=NCc1ccccc1)NC(=O)c1nc(Cl)c(N)nc1N | none | none | none
CC1(C)CCC(=O)c2nnn(-c3nonc3N)c21 | none | none | none
CCNc1ccc(C)cc1C(=O)N1CCCC(c2n[nH]c(=O)n2CC)C1 (stereo not shown) | none | none | none
CS(=O)(=O)Nc1ccc(-n2c(CCCO)nc3ccccc32)cn1 | none | none | none
O=[N+]([O-])c1ccccc1/C=C/C=N/N=C/c1ccccc1O | none | none | none
CCNc1oc(-c2ccc(F)cc2)nc1S(=O)(=O)c1ccccc1 | none | - | none
Cc1ccc2c(c1)nc(SCC(O)c1ccc(Br)cc1)n2C (stereo not shown) | none | - | none
N#Cc1cccc(CN2CCC(CNC(=O)C3CCNCC3)C2)c1 (stereo not shown) | none | none | none
Cc1cc2c(c(=O)o1)C(c1ccc(Cl)c(Cl)c1)C(C#N)=C(N)O2 (stereo not shown) | none | none | none
O=C(c1ccc2cc[nH]c2c1)N1CCN(Cc2c[nH]cn2)CC(O)C1 (stereo not shown) | none | none | none
COCCCNc1cc(CCN)nc(C)n1 | none | none | none
Cc1ccc(C(F)(F)F)cc1CN1CC[C@@]2(O)CCNC[C@H]2C1 | none | none | none
Cc1cc2nc(-c3ccccn3)c(-c3ccccn3)nc2cc1C | none | none | none
Cc1ncncc1C(=O)N1C[C@@H](CN2CCOCC2)[C@@H](CO)C1 | none | none | none
O=S1(=O)C[C@H](NCCc2ccc(F)cc2)[C@@H](S(=O)(=O)c2ccccc2)C1 | none | - | none
Cc1ccc(-n2nc(C(=O)NCCO)nc2-c2ccccc2)cc1 | none | - | none
COC(=O)CCc1sc(Nc2ccccc2)nc1-c1ccc(OC)cc1 | none | - | none
N#CC1=C(N)N(c2ccc(F)cc2)C2=C(C(=O)OC2)C12C(=O)N(Cc1ccc(F)cc1)c1ccccc12 (stereo not shown) | none | none | none
Cc1ccc(NC(=O)[C@@H]2CNC[C@H](C(=O)NCc3nc(C)cc(C)n3)C2)cc1 | none | none | none
CN(C)S(=O)(=O)c1ccc(Nc2nc3ccccc3n3cnnc23)cc1 | none | none | none
CCc1cccc(C)c1NCc1ccc(C(=O)O)s1 | none | - | none
CC[C@H]1OC(=O)[C@H](C)[C@@H](O[C@H]2C[C@@](C)(OC)[C@@H](O)[C@H](C)O2)[C@H](C)[C@@H](O[C@@H]2O[C@H](C)C[C@H](N(C)C)[C@@H]2O)[C@](C)(OC)C[C@@H](C)C(=O)[C@H](C)[C@@H](O)[C@]1(C)O | none | none | none
CSc1ncc(CNC2CCOC3(CCOCC3)C2)n1C (stereo not shown) | none | none | none
CCC(CO)N(Cc1ccc(OC)nc1)Cc1ccsc1 (stereo not shown) | none | none | none
N#CC1(C(=O)N2C[C@H](Nc3ccnc(N)n3)[C@@H](C3CC3)C2)CCOCC1 | none | none | none
Cc1ccc2nc(C)cc(Nc3ccc(C(=O)O)cc3)c2c1 | none | none | none
CCc1c(C)nc2nncn2c1NCc1ccco1 | none | - | none
Cc1ccc(NC2(C(=O)N[C@H](C(N)=O)[C@@H](C)O)CCCC2)cc1 | none | none | none
CN1CCN([C@H]2CCN(C(=O)C(=O)Nc3ccccc3)C[C@H]2CCCO)CC1 | none | none | none
Cc1cnc(CN2CC3(CCCN(c4cc(N)ncn4)C3)CCC2=O)cn1 (stereo not shown) | none | none | none
Nc1ccc(C(=O)c2ccc3c(c2)OCCO3)cc1N | none | none | none
Cc1cc(C)c2c(-n3cccc3)c(C(=O)NCCO)sc2n1 | none | none | none
Nc1ccc(-c2ccc(N3C(=O)c4cccc5c(C(=O)c6ccccc6)ccc(c45)C3=O)cc2)cc1 | none | none | none
Cc1scc(C(=O)N2C[C@@H](CN(C)CCO)[C@@H](CO)C2)c1-c1ccccc1 | none | none | none
CN(C)CCOc1ccc(-c2nc(=c3ccc4c(c3)CCC=4N=O)c(=C3C=CNC=C3)[nH]2)cc1 | none | none | none
CC1(C)CCCC(C)(C#CCN(CCO)CCO)O1 (stereo not shown) | none | none | none
Oc1cccc(-c2nc3ncccn3c2Nc2ccc(Cl)cc2)c1 | none | none | none
CC(C)N1CCC(C(=O)N2CCC(C(O)c3ccccn3)CC2)CC1 (stereo not shown) | none | none | none
Cc1ccc(CNc2ncccc2-c2nc(-c3cccc(C)c3)no2)cc1 | none | - | none
CCOC(=O)c1cn(CCN2CCC(O)CC2)cc(Oc2ccccc2)c1=O | none | none | none
Nc1ccc(C(=O)c2ccccc2)cc1[N+](=O)[O-] | none | none | none
OC[C@H]1CN(Cc2c[nH]nc2C2CCCCC2)C[C@H]1CN1CCOCC1 | none | none | none
COc1cc(N2C(=O)CC(N3CCCCC3CCO)C2=O)cc(OC)c1OC (stereo not shown) | none | none | none
C[C@H](NC(=O)Cc1cc(F)cc(F)c1)C(=O)N[C@@H]1C(=O)N(C)c2ccccc2-c2ccccc21 | none | none | none
Nc1cc(C(=O)N2CCC(c3cc(Cc4ccccc4)n[nH]3)CC2)ccn1 | none | none | none
CCN1c2ccccc2C2=C(C(c3ccccc3Cl)C(C#N)=C(N)O2)S1(=O)=O (stereo not shown) | none | - | none
Cc1ccc2nc(NCc3ccc(Cl)cc3)c(-c3noc(C)n3)cc2c1 | none | - | none
COc1cc(C2C(C#N)=C(N)OC3=C2C(=O)CCC3)c(OC)c2c1OCO2 (stereo not shown) | none | none | none
COc1c(C)c2c(c(O)c1CC=C(C)CCC(=O)OCCN1CCOCC1)C(=O)OC2 | none | none | none
COc1ccc(CNc2nc3nc(C)c(Cl)c(C)n3n2)cc1OC | none | - | none
CC(NC1CCS(=O)(=O)C1)C(=O)O (stereo not shown) | none | none | none
O=C(Cc1ccccc1C(F)(F)F)N[C@@H]1CCNC[C@H]1O | none | none | none
C[C@@H]1CN(S(=O)(=O)c2ccc(C(=O)N3CC[C@H](N)C3)cc2)CCN1 | none | none | none
O=C(NCCCN1CCC(O)CC1)Nc1ccccc1OCc1ccccc1 | none | none | none
Cn1c(C2=C(N)N(c3ccccc3Cl)CC2=O)nc2ccccc21 | none | - | none
CC(C)c1ccc(-n2nnc(-c3nc(-c4ccc(Cl)cc4)no3)c2N)cc1 | none | - | none
CC(=Cc1ccco1)CN1CCN(c2nccc(N3CCC(O)CC3)n2)CC1 | none | none | none
O=C1c2[nH]nc(-c3ccccc3O)c2C(c2ccc(OCc3ccccc3)cc2)N1CCCO (stereo not shown) | none | - | none
CN(CCO)Cc1nnc(C2CCN(C(=O)c3ccoc3)CC2)n1C | none | none | none
CN(C)CCNc1ncnc2c1sc1nc3c(cc12)COC(C)(C)C3 | none | none | none
OC1CN(Cc2ccccc2)CCN(Cc2c[nH]nc2-c2ccc(Cl)cc2)C1 (stereo not shown) | none | none | none
Nc1sc2c(c1C(=O)N1CCCCC1)CCCC2 | none | none | none
Cc1nn(C)cc1NC(=O)NCC(CO)Cc1cccs1 (stereo not shown) | hit | none | none
COCCCNc1nc2c(c(=O)n(C)c(=O)n2C)n1Cc1ccccc1F | none | none | none
CC(C)=CCC1(CO)CCCN(Cc2nnc(C(C)C)o2)C1 (stereo not shown) | none | none | none
COC(=O)c1ccc(Nc2nc(C)c3nc(C)n(-c4ccc(C(=O)OC)cc4)c3n2)cc1 | none | none | none
CCCC(O)c1nc2ccccc2n1CCOc1ccc(C)cc1 (stereo not shown) | none | - | none
C/C(=N\O)C1CC(CC(=O)O)C1(C)C (stereo not shown) | none | none | none